Results: patent publication US9376466B2, “Peptide inhibitors of caspase 2 activation” (The Trustees of Columbia University in the city of New York, priority 2011, dated 2016)
Results are given in words; binding and its absence hold for the method and conditions named. In cells and extracts the contact can be indirect. Some entries that bind do so weakly or less than the wild type.

Legend:
[1] = biological target: RAIDD (RIP-associated ICH-1/CED-3-homologous protein with a death domain) (rat); test: co-immunoprecipitation of endogenous RAIDD, Western blot for Caspase 2 (legend of FIG. 13)
[2] = biological target: RAIDD (RIP-associated ICH-1/CED-3-homologous protein with a death domain) (rat); test: co-immunoprecipitation of endogenous RAIDD (anti-CRADD beads) from primary rat hippocampal neuron lysates, Western blot for Caspase 2

B1: Caspase 2 (enzyme, rat, UniProt P55215 2-452, looked up)
chain: AASSGRSQSSLHRKGLMAADRRSRILAVCGMHPDHQETLKKNRVVLAKQLLLSELLEHLLEKDIITLEMRELIQAKGGSFSQNVELLNLLPKRGPQAFDAFCEALRETRQGHLEDLLLTTLSDIQHILPPLSCDYDSSLPFSVCESCPPHKQSRLSTDTMEHSLDNGDGPPCLQVKPCTPEFYQAHYQLAYRLQSQPRGLALVMSNVHFTGEKDLEFRSGGDVDHTTLVTLFKLLGYNVHVLYDQTAQEMQEKLQNFAQLPAHRVTDSCIVALLSHGVEGGIYGVDGKLLQLQEVFRLFDNANCPSLQNKPKMFFIQACRGDETDRGVDQQDGKNHAQSPGCEESDAGKEELMKMRLPTRSDMICGYACLKGNAAMRNTKRGSWYIEALTQVFSERACDMHVADMLVKVNALIKEREGYAPGTEFHRCKEMSEYCSTLCQQLYLFPGYPPT
[1]
  binding: binds
[2]
  binding: binds
